The text below walks through data of patent US20230133580A1, “MENTHOL-CONTAINING COMPOSITION” (SUNSHO PHARMACEUTICAL CO., LTD., priority 2020, published 2023).

The series can be described thus: Odor comparison test B.

SMILES strings stand for the structures. Where a name gives a salt, the structure may show the parent alone. Some compounds share one wording; it may come from a single statement.

As for `CCOC(=O)CCC(=O)OCC` [Diethyl succinate], the Rating result (l-Menthol 50, solvent 50 pbw) is “A (when the average score is 4 points or more, the sample is rated A)”.

For `CC(=O)OCCCCCCCCOC(C)=O` [1,8-Diacetoxyoctane], under “l-Menthol 70, solvent 30 pbw”, the Rating result is on record as “D (when the average score is 2 points or more but less than 3 points, the sample is rated D)”.

As for `CC(=O)OCCCCCCOC(C)=O` [1,6-Diacetoxyhexane], the Rating entry is given as “D (when the average score is 2 points or more but less than 3 points, the sample is rated D)” (l-Menthol 50, solvent 50 pbw) and “C (when the average score is 3 points or more but less than 3.5 points, the sample is rated C)” (l-Menthol 60, solvent 40 pbw).

Take `CCCCCCCCCCCCCCCC(=O)OCC` [Ethyl palmitate]: the Rating entry by setting is: (l-Menthol 50, solvent 50 pbw) “C (when the average score is 3 points or more but less than 3.5 points, the sample is rated C)”; (l-Menthol 70, solvent 30 pbw) “B (when the average score is 3.5 points or more but less than 4 points, the sample is rated B)”.

For `CCOC(=O)/C=C/C(=O)OCC` [Diethyl fumarate], the Rating entry (l-Menthol 50, solvent 50 pbw) was “E (when the average score is less than 2 points, the sample is rated E)”; the Rating entry (l-Menthol 60, solvent 40 pbw) was “E (when the average score is less than 2 points, the sample is rated E)”; the Rating result (l-Menthol 70, solvent 30 pbw) is on record as “D (when the average score is 2 points or more but less than 3 points, the sample is rated D)”.

On to `CCCCOCCOCCOCCCC` [Diethylene glycol dibutyl ether], for which the Rating entry runs as follows: (l-Menthol 50, solvent 50 pbw) “D (when the average score is 2 points or more but less than 3 points, the sample is rated D)”; (l-Menthol 60, solvent 40 pbw) “D (when the average score is 2 points or more but less than 3 points, the sample is rated D)”; (l-Menthol 70, solvent 30 pbw) “D (when the average score is 2 points or more but less than 3 points, the sample is rated D)”.

For the molecule `OCc1ccccc1` [Benzyl alcohol], under “l-Menthol 80, solvent 20 pbw”, the Rating entry is listed as “E (when the average score is less than 2 points, the sample is rated E)”.

Turning to `CC(C)COC(=O)CCCCC(=O)OCC(C)C` [Diisobutyl adipate], the Rating entry (l-Menthol 50, solvent 50 pbw) is “B (when the average score is 3.5 points or more but less than 4 points, the sample is rated B)”.

For `C=C(C)[C@H]1CC=C(C)CC1` [d-Limonene, reference compound], the Rating result (l-Menthol 80, solvent 20 pbw) was “D (when the average score is 2 points or more but less than 3 points, the sample is rated D)”.

Take `CCOC(=O)CCCCCCCCC(=O)OCC` [Diethyl sebacate]: the Rating result reads like this: (l-Menthol 60, solvent 40 pbw) “A (when the average score is 4 points or more, the sample is rated A)”; (l-Menthol 70, solvent 30 pbw) “A (when the average score is 4 points or more, the sample is rated A)”.
